Laboratory results: article PMC9091212
These are yes or no findings as the source states them, for the method shown. In cells and extracts the contact can be indirect. Some results given as binding are weak or reduced against the parent protein; the word gives no strength.

Sequences of proteins named here, by UniProt entry; tags and fusion partners are left off.
UniProt Q05397: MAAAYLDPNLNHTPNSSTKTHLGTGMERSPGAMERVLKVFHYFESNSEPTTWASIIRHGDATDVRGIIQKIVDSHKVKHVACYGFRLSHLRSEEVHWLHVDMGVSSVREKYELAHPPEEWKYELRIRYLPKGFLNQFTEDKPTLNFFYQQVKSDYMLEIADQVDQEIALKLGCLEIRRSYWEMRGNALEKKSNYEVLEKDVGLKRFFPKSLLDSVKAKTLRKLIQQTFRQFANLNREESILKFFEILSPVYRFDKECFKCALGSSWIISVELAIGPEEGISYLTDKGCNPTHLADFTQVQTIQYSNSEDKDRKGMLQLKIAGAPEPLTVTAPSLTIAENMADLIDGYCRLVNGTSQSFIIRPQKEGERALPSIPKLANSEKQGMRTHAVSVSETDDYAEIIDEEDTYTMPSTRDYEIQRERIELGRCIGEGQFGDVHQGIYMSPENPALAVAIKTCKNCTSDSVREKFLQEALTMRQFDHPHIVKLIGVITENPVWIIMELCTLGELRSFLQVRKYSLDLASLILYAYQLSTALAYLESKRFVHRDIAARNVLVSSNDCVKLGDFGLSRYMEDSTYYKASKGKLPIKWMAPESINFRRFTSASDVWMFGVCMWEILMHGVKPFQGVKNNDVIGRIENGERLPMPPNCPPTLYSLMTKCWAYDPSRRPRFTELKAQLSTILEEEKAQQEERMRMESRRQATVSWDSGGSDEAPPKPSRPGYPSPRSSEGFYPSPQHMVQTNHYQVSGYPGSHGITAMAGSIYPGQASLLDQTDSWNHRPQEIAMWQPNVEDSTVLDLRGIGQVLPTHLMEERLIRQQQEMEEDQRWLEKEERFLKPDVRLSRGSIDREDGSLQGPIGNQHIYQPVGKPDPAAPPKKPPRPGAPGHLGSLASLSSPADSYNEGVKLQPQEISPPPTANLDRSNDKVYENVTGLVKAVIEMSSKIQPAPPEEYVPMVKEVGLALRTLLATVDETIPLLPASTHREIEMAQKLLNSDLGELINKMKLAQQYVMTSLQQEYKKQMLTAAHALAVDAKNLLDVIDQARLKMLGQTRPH
UniProt P05556: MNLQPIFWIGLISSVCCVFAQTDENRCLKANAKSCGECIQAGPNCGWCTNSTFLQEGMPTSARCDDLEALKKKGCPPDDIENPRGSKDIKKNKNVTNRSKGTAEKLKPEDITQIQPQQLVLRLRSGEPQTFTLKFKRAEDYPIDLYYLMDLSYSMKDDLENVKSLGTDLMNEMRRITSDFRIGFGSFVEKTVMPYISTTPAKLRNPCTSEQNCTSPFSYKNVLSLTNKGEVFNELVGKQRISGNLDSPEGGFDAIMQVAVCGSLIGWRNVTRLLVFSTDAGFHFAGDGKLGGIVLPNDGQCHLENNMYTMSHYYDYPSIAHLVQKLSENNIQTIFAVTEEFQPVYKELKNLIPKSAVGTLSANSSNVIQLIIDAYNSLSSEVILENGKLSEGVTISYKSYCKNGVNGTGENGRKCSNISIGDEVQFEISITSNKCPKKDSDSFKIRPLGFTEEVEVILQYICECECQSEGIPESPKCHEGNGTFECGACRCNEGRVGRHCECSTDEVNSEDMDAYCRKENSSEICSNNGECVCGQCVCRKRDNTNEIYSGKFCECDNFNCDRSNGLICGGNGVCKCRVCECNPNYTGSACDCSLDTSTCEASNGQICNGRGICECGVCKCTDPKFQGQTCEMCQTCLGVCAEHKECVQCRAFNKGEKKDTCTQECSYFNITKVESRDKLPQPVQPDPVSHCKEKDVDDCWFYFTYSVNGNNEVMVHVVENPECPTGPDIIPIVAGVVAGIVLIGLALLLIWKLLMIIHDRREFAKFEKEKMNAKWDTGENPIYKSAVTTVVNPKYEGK

Tests used:
[1] = target: focal adhesion kinase (FAK) (human (endogenous in MDA-MB-231)) (UniProt Q05397); assay: co-IP; IP of endogenous FAK from lysates of MDA-MB-231 cells treated with vehicle or TGFβ (5 ng/mL, 2 h), or with vehicle or the FAKi VS-4718 (1 μM, 24 h); western blotting for FAK, TGFβRI and TGFβRII; lysis buffer 1% Triton X-100, 0.5% NP-40, 150 mM NaCl, 10 mM Tris pH 7.4; protein G agarose
[2] = target: integrin β1 (human (endogenous in MDA-MB-231)) (UniProt P05556); assay: co-IP; IP of endogenous integrin β1 with western blotting of TGFβRI, and reverse IP of TGFβRI with western blotting of integrin β1, from MDA-MB-231 lysates; also from untreated cells (without TGFβ) and with FAK inhibitor treatment

binding [1]: binds
binding [2]: binds
B1: TGFβ receptor type I (TGFβRI) (receptor, UniProt P36897 34-503)
chain: LQCFCHLCTKDNFTCVTDGLCFVSVTETTDKVIHNSMCIAEIDLIPRDRPFVCAPSSKTGSVTTTYCCNQDHCNKIELPTTVKSSPGLGPVELAAVIAGPVCFVCISLMLMVYICHNRTVIHHRVPNEEDPSLDRPFISEGTTLKDLIYDMTTSGSGSGLPLLVQRTIARTIVLQESIGKGRFGEVWRGKWRGEEVAVKIFSSREERSWFREAEIYQTVMLRHENILGFIAADNKDNGTWTQLWLVSDYHEHGSLFDYLNRYTVTVEGMIKLALSTASGLAHLHMEIVGTQGKPAIAHRDLKSKNILVKKNGTCCIADLGLAVRHDSATDTIDIAPNHRVGTKRYMAPEVLDDSINMKHFESFKRADIYAMGLVFWEIARRCSIGGIHEDYQLPYYDLVPSDPSVEEMRKVVCEQKLRPNIPNRWQSCEALRVMAKIMRECWYANGAARLTALRIKKTLSQLSQQEGIKM
